Some of the results follow.
B1: il2ra_site1_2b5i_normal_mot_HHH_b2_04618_af2_000000067_0001_43_56_H_._HHH_b1_03627_af2_0001_0000200008_0000001_0_af2pred_dldesign_0_af2pred (protein)
chain: SSSSNRFLERVLAQLREELEEAKKENDKELLQKLKEQTKKLYERTKDPRLKELLEEIEKLLSSSS
B2: il2ra_site1_1z92_normal_mot_01209686ea234b34325f918445e6eade_0001_af2_000000154_0001_18_33_H_._HHH_b1_02824_0001_0000300044_0000001_0_af2pred_0001_af2pred (protein)
chain: SSSSDLEERAQEIVEELVRRFGLSEEEKRALEYAAEAAVRAGFSEKSIRLALEALVELLNSSSSS
B3: il2ra_site2_2erj_sap_12_mot_0ec3dbe5a60479548ca220575d6efbeb_0001_000000280_0001_35_49_H_._HHH_b1_04602_0001_0000300004_0000001_0_0001 (protein)
chain: SSSSDAEEEAEELYELVKEAVERGDVELASELLRLLLELAHEYRNEEVHRLAWEALRLNGSSSSS
B4: il2ra_site1_1z92_sap_25_mot_HEEHE_1462_000000005_0001_40_55_H_._9b27c49f4244f023ba89377d59a42b61_0001_0001_0000100008_0000001_0_0001 (protein)
chain: SSSSSREEKSAEWAIRLIESALRLNNEELLKLALRQLEMLVERIGDPELEQRLEELEELLSSSSS
B5: il2ra_site1_1z92_normal_mot_HHH_b2_06073_af2_000000110_0001_43_57_H_._HHH_b2_05950_0001_0000300036_0000001_0 (protein)
chain: SSSSSDVFELVDELFQRAARSKDQEERRELLEEAFEIAEKGNDERLLKEIERYLRMLEGSSSSSS
B6: il2ra_site2_2erj_sap_23_mot_6c2800a769814540b5b47941e710ff28_0001_000000197_0001_35_49_H_._HHH_b2_04229_0001_0000100001_0000001_0_0001 (protein)
chain: SSSSSEEYERVAELLARLIELLANGNPEEAEELAEELLRFVEELNDPLLRRFVEDALKAIKSSSS
B7: il2ra_site1_3nfp_normal_mot_HHH_b2_01582_af2_000000000_0001_1_16_H_._92a3150cbef6ae0ea5404c1e8ea5100d_0001_1_0001_0000100001_0000001_0 (protein)
chain: SLKVLKQAARFLGDPEVLEAVEVLEELKKDPRHREEVYELIERLLRLLAKDPEEARKLAEEILEK
B8: il2ra_site1_1z92_sap_15_mot_9053287a88fd35e5e7b7820c009b1930_0001_000000002_0001_34_47_H_._a237db91e5dae9a764afea8a79d812a9_0001_0001_0000100014_0000001_0_0001 (protein)
chain: SEEEELEEELEKAGVPPETIEAILRDLKRAEKLTGDPEWAAKAVAMVLRKWGDPEAARIVEEFIK
B9: il2ra_site1_2b5i_normal_mot_HHH_b2_00256_000000050_0001_19_35_H_._HHH_b2_00953_af2_0001_0000100007_0000001_0_af2pred_0001_af2pred (protein)
chain: SSSSSNEARYLIRVIFELFHRLGLSAEQAKELARLAAELLDRGVSEEEAEELLQELAKELSSSSS
B10: il2ra_site1_1z92_sap_19_mot_6c2800a769814540b5b47941e710ff28_0001_af2_000000005_0001_35_49_H_._HHH_b1_00427_0001_0000300019_0000001_0_0001_af2pred_0001_af2pred_ … (protein)
chain: SSSSDEEEELARRIVERLVEEYNLDEETRRALERDAENALKRGYSEHSIRRALENLARLMSSSSS
B11: il2ra_site2_3nfp_normal_mot_HHH_b1_05785_af2_000000002_0001_41_57_H_._HHH_b2_01971_0001_0000200009_0000001_0 (protein)
chain: SSSSSDEERLLELFLESLRQAREEGDEELAHDSVRYAIAAARLLNDEETLKELEEILKELSSSSS
B12: il2ra_site2_2erj_sap_12_mot_HHH_b1_00853_af2_000000249_0001_20_37_H_._HHH_b2_06246_af2_0001_0000300005_0000001_0_0001 (protein)
chain: SSSSSDDLEEAYELAVRLLRLLANRDPEEFEEVSRQLRELAERLQSDNLKEIIELMERQFSSSSS
B13: il2ra_site2_2erj_sap_34_mot_35d2dc24e2c4431f89e6f806b163ecf8_0001_af2_000000142_0001_35_50_H_._HHH_b1_08674_af2_0001_0000200006_0000001_0_0001 (protein)
chain: DVEELLEEAAELLKKGDPRALHVLFEALRAAAEEGDPELLKEIEKVMELLHENEEQAVELLERLG
B14: il2ra_site1_2b5i_sap_12_mot_HHH_b2_06557_000000121_0001_42_56_H_._HHH_b2_06964_0001_0000100004_0000001_0_0001_af2pred_0001_af2pred (protein)
chain: SSSSSEASEEAFELFREANELARNGDPEEARKVLEEALELAERGNSPNLVKSIRIALEQLKSSSS
B15: il2ra_site2_3nfp_sap_23_mot_HHH_b1_06158_af2_000000274_0001_1_17_H_._297f351de040020aa651d6b40cb4c2be_0001_1_af2_0001_0000100001_0000001_0_0001 (protein)
chain: SSSSSLAEELVEAHLALLEEALRQGDEESARRAIEIAEAVIEQLDNEELQELLEELKELLSSSSS
B16: il2ra_site1_3nfp_normal_mot_HHH_b2_02066_af2_000000034_0001_1_16_H_._HHH_b2_02769_af2_0001_0000200020_0000001_0_af2pred_0001_af2pred_swapped (protein)
chain: SSSSDEYEELRELVRQIRELRRKGDPRAEELVEEALRLAEELGSRVAALLLRRLEEHIEHDSSSS
B17: il2ra_site2_2erj_sap_32_mot_HHH_b2_01204_af2_000000051_0001_19_34_H_._HHH_b2_05327_0001_0000100001_0000001_0_0001 (protein)
chain: SSSSSDALREAYELAVEVMRLLAEGDEEEAEELAEEVEKLLRELGSPEAAEMLRELLELQSSSSS
B18: il2ra_site1_3nfp_sap_13_mot_0eddeacbb14b769e73e254714f31e2f9_0001_af2_000000052_0001_37_51_H_._HHH_b2_04552_0001_0000400022_0000001_0_0001_af2pred_0001_af2pred_ … (protein)
chain: SSSSDEARIVIKLVEEIFEELGLSWRQLRLLTRIAAKLLNEGVSEEEIERILRELAEELLSSSSS

Target: il2ra, P01589
Test: yeast display titration

Apparent Kd, inactive:
B1 no binding seen, B2 no binding seen, B3 no binding seen, B4 no binding seen, B5 no binding seen, B6 no binding seen, B7 no binding seen, B8 no binding seen, B9 no binding seen, B10 no binding seen, B11 no binding seen, B12 no binding seen, B13 no binding seen, B14 no binding seen, B15 no binding seen, B16 no binding seen, B17 no binding seen, B18 no binding seen
